# Results of single-concentration screens

Source: ChEMBL document CHEMBL3988442, “University of Dundee, Small-Polar-MMV Screening Library” (2021).

A: 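Phenotypic screen: M. tuberculosis growth, cholesterol and DPPC medium, 4 days; the read-out is not stated. Compounds at 50 µM. Direction is inferred from retests: higher values go with more growth inhibition. Of about 69,000 compounds tested this way, about 370 (0.54%) reached 50% or more in at least one test.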
B: 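Whole-cell growth test on Mycobacterium tuberculosis, read after 3 days in glucose-containing 7H9 medium; the read-out is not stated. Compounds at 50 µM. The record gives no direction; compounds that gave an IC50 in retests scored well above the rest, so higher reads as more growth inhibition. Size under these conditions: about 69,000 compounds, about 760 of them at 50% or above in at least one test.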

Results are given as percent effect. The record does not define 0% and 100%; most values in the screen are far below 50% and negative numbers occur (in some assays of this library far below -100). Compounds were drawn at random from those tested, without regard to their results. Two or more numbers in one place are separate tests of the same structure; such repeats can differ widely.

SMILES,A,B
CC(C)N[C@@H]1CO[C@H](CNC(=O)c2ccccc2)[C@H]1O,2.003,-4.829 and -2.28
Cn1cc(CN(Cc2cccc(-n3cccn3)c2)C2CC2)cn1,8.738,-2.804
Cc1nc(C(=O)NS(=O)(=O)c2cccc(C#N)c2)cs1,-19.88,-22.93
Cc1nn(C)c2ncc(S(=O)(=O)N3CCCC(C)CC3)cc12 (stereo not shown),5.865,34.74
CCc1ccc(C(=O)Nc2cc(N3CCNC3=O)ccc2Cl)o1,14.05,31.85
O=C(O)C(F)(F)F.[H][C@@]12COC[C@]1([H])[C@@H](OCC1CCOCC1)CN2Cc1nccs1,-27.53,-71.78
COCCN1C[C@@H](C)[C@@]2(COCCN(C(=O)c3ccoc3)C2)C1,-4.882,-1.196 and -4.561
CN(Cc1ccco1)C(=O)c1cccc(N2CCCC2=O)c1,-7.688,1.308 and -37.51
CC(Cn1cc(Cl)cn1)C(=O)Nc1ccc(CN2CCCCCC2)cc1 (stereo not shown),-6.917,-7.413
O=C(O)C(F)(F)F.O=S(=O)(NCC1COCc2c(-c3ccncc3)nnn2C1)C1CC1 (stereo not shown),-12.02,-6.013
C=C(C)COc1ccccc1CN1CCCC(C(=O)NCCCO)C1 (stereo not shown),9.106,6.409 and -21.52
Cc1ncccc1-c1cc2cccnc2n1CCCNC(=O)C(C)(C)C.Cl,6.792,22.63
O=C(c1cccs1)N1CCc2c(nc(N3CCCCC3)[nH]c2=O)C1,-3.118,18.02
O=C(C1CCOC1)N1CCC(Cn2cc(-c3ccsc3)nn2)CC1 (stereo not shown),8.605,0.1367 and -6.218
CC(C)Cc1noc(CNc2cc3c(cc2Cl)OCCCO3)n1,-0.1067,15.63 and 34.45
CN(C(=O)COC1CCCCC1)C1CCN(CC2CCOC2)CC1 (stereo not shown),-27.91,-16.37
Cc1ccc(OCCN(C)Cc2nc3c(cnn3C)c(=O)[nH]2)cc1,28.87,42.36
CCN(CC)CCn1cnc(-c2ccccc2)c1-c1cnn(CC)c1,14.76,-0.8645 and -28.48
C1CN(CC2CC2)C(COCC2CC2)c2nnn(CC3CC3)c21.O=C(O)C(F)(F)F (stereo not shown),0.6642,2.048
Cc1nnc2n1CCN(C(C(N)=O)c1ccc(F)cc1)C2 (stereo not shown),15.24,16.07 and -3.184
CC(C)C(C(=O)O)c1cccc(Cl)c1 (stereo not shown),6.551,-0.1054 and -24.28
Cc1nc(C)c(C(=O)N2CCCN(Cc3cnn(C)c3)CC2)s1,-7.348,-11.66
Cc1cnn(C2CCCN(C(=O)c3c(C)oc4nc[nH]c(=O)c34)C2)c1 (stereo not shown),-5.148,3.921
COc1cc(F)c(CN2CC[C@@](O)(C3CC3)[C@H](C)C2)cc1OC,-1.842,19.22 and -2.922
CN1CCC(CNC(=O)c2cccc(NC(N)=O)c2)c2ccccc21 (stereo not shown),1.148,11.74 and 8.752
O=C(Nc1ccccc1)c1n[nH]c(-n2cnnc2)n1,-4.075,15.49
Oc1nc(N2CCCC2)nc2c1CCN(Cc1ccsc1)CC2,11.27,-5.78
c1c(CN2CCCCC2)nc2n1CCN(CC1CC1)C2,2.084 and -1.585,-32.96 and 2.147
O=C(Nc1cc(C(F)(F)F)ccc1Cl)c1ccc(N2CCCC2)nn1,-70.38,-63.22
[H][C@]12CC[C@]([H])(CN(C(=O)C3CCC3)C1)N(Cc1cnc(CC)nc1)C2,-2.608,-16.85
CCc1noc(CS(=O)(=O)C/C=C/c2ccccc2)n1,5.484 and -20.83,9.137 and 8.644
Cc1ccc(C(=O)N2CCN(Cc3cccs3)CC2)n1C,17.87,-4.201
Cc1ncsc1CCN(C)C(=O)CN1CCOc2ccccc2C1,2.15,1.917
N#Cc1cc2c(=O)n(CC(O)C(F)(F)F)ccc2[nH]c1=O (stereo not shown),-22.89,-46.51
CCc1nc(Cn2ccnc2-c2nccn2C)no1,-0.6537,-10.01
[H][C@@]12CCN(C(=O)Cc3ccsc3)C[C@]1([H])[C@H](c1nc(C)no1)CCO2,-18.02,-17.68
Cc1nnc2n1CCN(CCCS(=O)(=O)c1ccccc1)C2,7.395,27.88
CNC(=O)[C@@H]1C[C@H](N)CN1S(=O)(=O)c1cc(C)c(Cl)cc1C,3.673,1.044
CC(=O)NCC(=O)N1Cc2cc(C#N)ccc2C1c1cnco1 (stereo not shown),-16.8,-7.738 and -32.76
CC(=O)NCCCSC1CCCN(c2ccccc2Cl)C1=O (stereo not shown),5.423,9.229 and -8.283
COC(=O)N1CCC(Nc2cccc(F)c2C(C)=O)C1 (stereo not shown),1.979 and 13.72,0.8556
Cc1ccc2c(c1)[C@@H](CC(=O)N(C)C)CCO2,-20.11,1.265
Cc1nnnn1CCC(=O)N1CCC2(CCC(=O)N(CC3CC3)C2)CC1,-9.554 and -25.11,-10.84
O=C(O)C(F)(F)F.[H][C@]12CCN(S(=O)(=O)CC(C)C)CC[C@@]1([H])S(=O)(=O)CCN2CC(C)C,6.314,3.213 and 0.4601
CCC(=O)N1CCN(CCn2cccn2)c2ncccc2C1.O=C(O)C(F)(F)F,-10.74,-20.91
O=C(c1cc2c(s1)CCOC2)N1CCCCC1Cn1cccn1 (stereo not shown),1.753,4.307
CN(C)C1COC2(CCN(C(=O)c3cccc(Cl)c3)CC2)C1.O=C(O)C(F)(F)F (stereo not shown),1.431,-22.52
CN(CC(F)(F)F)C(=O)CNC(=O)Cc1ccccc1O,5.34,8.831
Cc1cc(CN(C)CCC(O)c2ccccc2)nn1C (stereo not shown),5.91 and -0.4504,0.2969
CN(Cc1cnn(C)c1)C(=O)C(c1ccccc1)N1CCSCC1 (stereo not shown),-12.38 and -15.59,-10.27
Cc1ccccc1CNc1ccc(S(N)(=O)=O)c(C(F)(F)F)c1,-1.884,2.986
Cc1nc(C2CCCN2CC(=O)N(Cc2ccsc2)C2CC2)no1 (stereo not shown),-12.54,11.23
[H][C@@]12CCN(C(=O)c3cnn(C)c3)[C@@]1([H])CCN2c1ccccn1,-10.14,-10.84 and -11.48
O=C(CN1CC(c2nc(-c3ccco3)no2)C1)NCC1CCCO1.O=C(O)C(=O)O (stereo not shown),3.932,3.722 and 19.24
CCOc1ccc(NC(=O)NCCS(=O)(=O)CC)cc1C,1.74,-26.24
CC(C)NC(=O)N1CCCC(Cn2cc(-c3ccc(F)cc3)nn2)C1 (stereo not shown),-14.74,-7.227 and -1.317
CSCC(CCO)Nc1cccc(C(F)(F)F)n1 (stereo not shown),-10.44,23.42
Cc1cc(C)n(CC2CCCN2C(=O)c2ccc3nnc(C)n3c2)n1 (stereo not shown),16.54,8.557
CCC[C@H]1CN(S(=O)(=O)c2cc(C)ccc2F)C[C@@H]1N,7.299,15.41
O=C(O)C(F)(F)F.[H][C@@]12CCN(Cc3ccc(OC)cc3)[C@]1([H])CC[C@H](C(=O)NCC1CC1)O2,4.861,1.412
COCCN(C)C(=O)Cn1cccc(OC)c1=O,-26.81,-23.94
Cc1nccn1CCCC(=O)N1CCCC(c2noc(C(C)C)n2)C1 (stereo not shown),7.387,-7.778 and 20.62
[H][C@@]12CCN(C(=O)C3CCOCC3)[C@]1([H])CCC(=O)N2Cc1csc(C)n1,-13.35,22.67
COCC(=O)NCCCn1ncc2c(C)cccc21,17.79,36.61
CO[C@H]1CN(Cc2nc3ccccc3n2C)C[C@@]12CCCO2,-5.009 and 3.392,-4.012
COCCNC(=O)c1sccc1N(C)S(=O)(=O)c1ccc(Cl)cc1,-18.05,-14.05
COc1cccc(N2CCN(C(=O)COc3c(C)occc3=O)CC2)c1,0.2645,19.94
Cc1nc(N(C)C)nc(-c2cccc(-c3ccn(CCCO)n3)c2)c1C,19.85,42.55
OCC(O)CN1CCc2onc(-c3ccc(C(F)(F)F)cc3)c2C1 (stereo not shown),14.06,16.13